# Assay results as given in PubChem BioAssay AID2685 (National Center for Advancing Translational Sciences (NCATS), 2010).
# The list shows a part of the results. Shown are side measurements of this screen, not its main read-out; they come without a call. Compounds called inactive in the main read-out are mostly missing here. Words in brackets tell the shape of the fitted curve; partial curves, single points and poor fits give uncertain potencies.
# Assay: qHTS Assay for Lipid Storage Modulators in Drosophila S3 Cells;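 for cell number change: cells counted by Cell Tracker Red CMTPX staining in the red channel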
# Conditions: BODIPY lipid droplet fluorescence, 18-24 h; for cell number change: measured here: cell count max response, cells fed with added oleic acid
# Summary of the method: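 Drosophila S3 cells got compounds at several concentrations plus oleic acid (400 uM solution). Laser-scanning cytometry with 488 nm excitation read lipid droplets at 500-530 nm and cells at 575-640 nm. Percent activity was relative to 20 uM Triacsin C.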
# [1] = measured here: cell number channel AC50, cells fed with added oleic acid
# [2] = measured here: lipid fluorescence (Fed channel) AC50, cells fed with added oleic acid
Structure (SMILES),cell number change,AC50 [1],AC50 [2]
N#Cc1c(-c2ccncc2)cc(-c2ccc(F)cc2)nc1N,15%,–,–
CCC1(C)Cc2c(sc3nc(SC)[nH]c(=O)c23)CO1 (stereo not drawn),34.8%,–,–
COc1ccc2c(CC(=O)Nc3ccccc3N3CCOCC3)coc2c1,14.3%,"5.17 µM [falling, single point]",–
Cn1c(=O)c2c(ncn2CCCc2ccccc2)n(C)c1=O,-16%,–,–
COc1ccc(N(CC(=O)Nc2ccc(C(C)C)cc2)S(=O)(=O)c2c(C)noc2C)cc1,2.36%,–,"25.9 µM [rising, single point]"
CSCCC(NC(=O)c1cccc(S(=O)(=O)N2CCOCC2)c1)C(=O)Nc1cccc(C)c1 (stereo not drawn),-0.236%,–,"9.2 µM [rising, partial curve]"
COc1cccc(OCCCCCCN2CCOCC2)c1,-2.43%,–,"6.51 µM [falling, single point]"
Cc1ccccc1NS(=O)(=O)c1ccc2[nH]cc(C(=O)NC3CCCCC3)c(=O)c2c1,-32%,"29.1 µM [falling, single point]","25.9 µM [falling, single point]"
Cn1c(SCC(=O)N(C2CCCCC2)C2CCCCC2)nnc1-c1cccs1,-37.1%,"32.6 µM [falling, single point]","32.6 µM [falling, single point]"
COc1ccc(CCNC(=O)CSc2cccc3cccnc23)cc1OC,-11.7%,–,"3.66 µM [falling, partial curve]"
CN(CCNC(=O)C1CCN(c2ncnc3c2nc2n3CCCCC2)CC1)Cc1ccccc1,21.6%,"0.0461 µM [rising, full curve, poor fit]",–
NC(=O)c1nsc(C(=O)N(Cc2cccnc2)C(C(=O)NCc2ccccc2)c2ccc(O)cc2)c1N (stereo not drawn),8.06%,–,–
CC(C)(C)C(=O)N(Cc1ccccc1)c1ccccn1,-25.6%,–,"29.1 µM [falling, single point]"
CC(=O)N1CCN(Cc2nc3cc(NC(=O)Cn4nc(C)c5ccccc5c4=O)ccc3n2C)CC1,-15.6%,"6.51 µM [falling, single point]",–
C=CCOc1ccc(C(=O)N(Cc2ccc(N(C)C)cc2)C2CCS(=O)(=O)C2)cc1 (stereo not drawn),32.5%,"1.46 µM [rising, full curve, poor fit]","2.31 µM [rising, partial curve]"
O=C(N/N=C/c1cc2cc3c(cc2nc1Cl)OCCO3)c1ccccc1O,-20.3%,–,"6.51 µM [falling, partial curve]"
Cc1ccc(SCCSc2nc(N)cc(=O)[nH]2)cc1,-32%,"29.1 µM [falling, single point]",–
CC(C)=CCN1CCN(Cc2cnc(N3CCOCC3)s2)CC1CCO (stereo not drawn),–,–,"20.6 µM [falling, partial curve]"
CCN(CC)S(=O)(=O)c1ccc(NC(=O)CN(c2cccc(C)c2)S(C)(=O)=O)cc1,-30.2%,"29.1 µM [falling, single point]","29.1 µM [falling, single point]"
Cc1ccc(CNC(=O)c2cc(C)nn2-c2ccccc2)cc1,24.8%,"0.103 µM [rising, full curve, poor fit]","2.31 µM [rising, single point]"

Structure (SMILES),cell number change,AC50 [1],AC50 [2]
CSc1ccccc1NC(=O)Cn1nc([N+](=O)[O-])cc1C,73.3%,–,–
COc1ccc(C(=O)O)cc1S(=O)(=O)N1CCSCC1,–,–,"6.51 µM [rising, partial curve]"
CC1C2C(c3ccccc3)N(C)C(=O)N(C)C2N(C)C(=O)N1C (stereo not drawn),-2.48%,–,"0.13 µM [falling, full curve, poor fit]"
CC(=O)Nc1nc(-c2ccc3c(c2)CCN3C(=O)C2CC2)c(C)s1,-34.6%,–,–
COc1cc(OC)cc(-c2c(-c3ccc(F)cc3)c3cc(Br)ccc3n2C)c1,–,–,"0.651 µM [falling, partial curve, poor fit]"
Cc1cc(=O)[nH]c(SCC(=O)N2CCN(C(c3ccccc3)c3ccccc3)CC2)n1,–,"1.46 µM [falling, partial curve, poor fit]",–
Cc1cc(/C=C\c2nc(O)c([N+](=O)[O-])c(=O)[nH]2)c(C)n1-c1ccccc1,-24.6%,"0.651 µM [falling, full curve, poor fit]","5.8 µM [falling, partial curve]"
CCNC(=S)N/N=C/c1cccc(OCc2c(F)cccc2Cl)c1,-4.36%,–,"3.66 µM [rising, partial curve]"
CCC(=C(c1ccc(OC)cc1)c1ccc(OC)cc1)c1cn(CC(O)CN2CCN(C)CC2)c2ccccc12 (stereo not drawn),-64%,"23.1 µM [falling, single point]",–
C/C(=N\NC(=O)C1=NNC(=O)C1C)c1cccs1 (stereo not drawn),–,"1.3 µM [falling, single point]","1.03 µM [falling, single point]"
CC(=O)N/C(=N\c1nc(C)cc(C)n1)Nc1ccc2ccccc2c1,-1.01%,–,"1.3 µM [rising, partial curve]"
CC1(C)CC(=O)C(C(=O)CCCCC(=O)C2C(=O)CC(C)(C)CC2=O)C(=O)C1,-32.2%,"16.4 µM [falling, partial curve]","23.1 µM [falling, partial curve]"
N#Cc1cc2c(nc1SC1CCCCC1O)CCCC2 (stereo not drawn),36.9%,–,"0.13 µM [rising, full curve, poor fit]"
CCOC(=O)C1CCN(S(=O)(=O)c2nc3nc(C)cc(C)n3n2)CC1,9.06%,–,"0.146 µM [rising, full curve, poor fit]"
Nc1ccc(C(=O)NC2CCSc3ccccc32)cc1[N+](=O)[O-] (stereo not drawn),-27%,–,–
CCOC(=O)c1c(NC(=O)CCC(=O)NCc2ccco2)sc2c1CCCC2,18.4%,"0.0651 µM [rising, full curve, poor fit]",–
CCOC(=O)C1=C(O)/C(=C/N(C)C)N=C1C,-9.21%,–,–
Cc1ccc(CCNC(=O)CN(c2cc(C)cc(C)c2)S(=O)(=O)c2c(C)noc2C)cc1,6.46%,–,–
Cc1cc(O)ccc1NS(=O)(=O)c1ccc2c3c(cccc13)C(=O)N2,–,–,"0.291 µM [falling, full curve]"
CC(C)(C)c1ccc(C(=O)NNC(=O)C2CCCCC2)cc1,-7.22%,–,"0.103 µM [falling, full curve, poor fit]"

Structure (SMILES),cell number change,AC50 [1],AC50 [2]
CCCNC(=O)N1CCC(C(=O)c2ccc(F)cc2)CC1,-16.5%,–,"0.164 µM [falling, full curve, poor fit]"
Cn1cnnc1SCC(=O)Nc1ccccc1F,22.3%,–,"6.51 µM [rising, single point]"
NC(=O)c1cc([N+](=O)[O-])ccc1Nc1ccccc1,21.3%,–,"1.84 µM [rising, partial curve]"
C#CCOCCOCCOCCNc1nc(N2CCN(C(=O)[C@H]([C@@H](C)CC)n3cc(CCCCN)nn3)CC2)nc(N2CCN(C(=O)[C@H](C)n3cc(CCCN=C(N)N)nn3)CC2)n1,-16.9%,–,"29.1 µM [rising, single point]"
N#CCSc1nc2ccc(N3CCOCC3)cc2c(=O)n1CCc1ccccc1,–,"0.411 µM [rising, partial curve, poor fit]","29.1 µM [rising, partial curve, poor fit]"
COc1cc(C2c3c(oc4ccccc4c3=O)C(=O)N2c2ccc(C)cn2)ccc1O (stereo not drawn),-1.28%,–,"2.91 µM [rising, full curve, poor fit]"
Nc1n[nH]c(C2CC2)c1N=Nc1ccc(Cl)cc1,7.79%,"6.51 µM [falling, single point]",–
CCc1cc(=O)oc2cc(C)cc(OCC(=O)NCC(O)c3ccccc3)c12 (stereo not drawn),-2.09%,–,"18.4 µM [falling, single point]"
O=C(CC12CC3CC(C1)CC(CC(=O)N1CCCC1)(C3)C2)N1CCCC1,-14.4%,–,–
NCCOc1ccc(C23CC4CC(CC(C4)C2)C3)cc1,-34.7%,"13 µM [falling, single point]",–
CCOc1ccc(CN2CCN(Cc3cnc(-c4ccccc4)s3)CC2CCO)cc1 (stereo not drawn),-31.7%,"2.59 µM [falling, partial curve, poor fit]","3.26 µM [falling, partial curve]"
Cc1ccccc1NC(=O)c1cnn(-c2ccccc2)c1C,-1.4%,–,"29.1 µM [rising, single point]"
O=S(=O)(Nc1nc2ccccc2nc1Cl)c1ccc(Cl)cc1,8.55%,–,"0.146 µM [falling, full curve, poor fit]"
Cc1ccc(C2=NN(C(=O)CSc3nccn3C)C(c3ccco3)C2)cc1 (stereo not drawn),-2.48%,"0.731 µM [rising, full curve, poor fit]","0.58 µM [rising, single point]"
CCN(CC)S(=O)(=O)c1ccc(/C=C/C(=O)OCC(=O)Nc2ccc(C(N)=O)cc2)cc1,20.9%,"0.517 µM [rising, single point]",–
CC(C)(C)C(=O)NNC(=O)COc1ccc2ccccc2c1Br,-6.35%,–,–
COCC(=O)N(C)CC1CCCN(CCc2ccccc2OC)C1 (stereo not drawn),11.9%,–,"0.082 µM [falling, full curve, poor fit]"
O=c1cc(-c2ccco2)nc(-c2cccs2)o1,8.13%,–,"0.0326 µM [falling, partial curve, poor fit]"
O=c1c2ccccc2ncn1-c1ccccc1[N+](=O)[O-],-4.42%,–,"0.58 µM [falling, single point]"
CC(C)Cc1ccccc1S(N)(=O)=O,14.1%,–,"29.1 µM [rising, single point]"

# In another format: results already given
Structure (SMILES) | cell number change | AC50 [1] | AC50 [2]
Cn1cnnc1SCC(=O)Nc1ccccc1F | 22.3% | – | 6.51 µM [rising, single point]
NC(=O)c1cc([N+](=O)[O-])ccc1Nc1ccccc1 | 21.3% | – | 1.84 µM [rising, partial curve]
C#CCOCCOCCOCCNc1nc(N2CCN(C(=O)[C@H]([C@@H](C)CC)n3cc(CCCCN)nn3)CC2)nc(N2CCN(C(=O)[C@H](C)n3cc(CCCN=C(N)N)nn3)CC2)n1 | -16.9% | – | 29.1 µM [rising, single point]
N#CCSc1nc2ccc(N3CCOCC3)cc2c(=O)n1CCc1ccccc1 | – | 0.411 µM [rising, partial curve, poor fit] | 29.1 µM [rising, partial curve, poor fit]
Nc1n[nH]c(C2CC2)c1N=Nc1ccc(Cl)cc1 | 7.79% | 6.51 µM [falling, single point] | –
CCc1cc(=O)oc2cc(C)cc(OCC(=O)NCC(O)c3ccccc3)c12 (stereo not drawn) | -2.09% | – | 18.4 µM [falling, single point]
NCCOc1ccc(C23CC4CC(CC(C4)C2)C3)cc1 | -34.7% | 13 µM [falling, single point] | –
O=S(=O)(Nc1nc2ccccc2nc1Cl)c1ccc(Cl)cc1 | 8.55% | – | 0.146 µM [falling, full curve, poor fit]
Cc1ccc(C2=NN(C(=O)CSc3nccn3C)C(c3ccco3)C2)cc1 (stereo not drawn) | -2.48% | 0.731 µM [rising, full curve, poor fit] | 0.58 µM [rising, single point]
CC(C)(C)C(=O)NNC(=O)COc1ccc2ccccc2c1Br | -6.35% | – | –
COCC(=O)N(C)CC1CCCN(CCc2ccccc2OC)C1 (stereo not drawn) | 11.9% | – | 0.082 µM [falling, full curve, poor fit]
O=c1c2ccccc2ncn1-c1ccccc1[N+](=O)[O-] | -4.42% | – | 0.58 µM [falling, single point]
CC(C)Cc1ccccc1S(N)(=O)=O | 14.1% | – | 29.1 µM [rising, single point]
